Experimental data taken from paper PMC3465347, “Regulation of NF-κB Activation through a Novel PI-3K-Independent and PKA/Akt-Dependent Pathway in Human Umbilical Vein Endothelial Cells” (PLoS ONE, 2012).
Results are given in words; binding and its absence hold for the method and conditions named. Some results given as binding are weak or reduced against the parent protein; the word gives no strength.

Sequences of proteins named here, by UniProt entry; tags and fusion partners are left off. Residues count along the entry.
UniProt Q04206: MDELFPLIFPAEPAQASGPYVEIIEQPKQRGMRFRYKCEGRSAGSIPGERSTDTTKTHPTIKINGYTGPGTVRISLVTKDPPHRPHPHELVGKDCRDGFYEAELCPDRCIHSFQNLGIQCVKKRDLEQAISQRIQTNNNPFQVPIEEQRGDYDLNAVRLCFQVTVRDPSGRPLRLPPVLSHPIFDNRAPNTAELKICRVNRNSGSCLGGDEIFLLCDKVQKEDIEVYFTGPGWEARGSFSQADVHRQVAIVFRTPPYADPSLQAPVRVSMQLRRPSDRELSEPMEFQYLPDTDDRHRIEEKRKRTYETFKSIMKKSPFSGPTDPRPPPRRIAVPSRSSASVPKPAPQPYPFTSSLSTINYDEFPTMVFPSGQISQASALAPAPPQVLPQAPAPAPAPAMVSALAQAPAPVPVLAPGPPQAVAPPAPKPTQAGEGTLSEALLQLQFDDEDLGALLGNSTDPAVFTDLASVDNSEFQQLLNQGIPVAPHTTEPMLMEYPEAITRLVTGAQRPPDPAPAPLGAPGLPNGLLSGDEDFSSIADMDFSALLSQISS
UniProt P19838, residues 1-433: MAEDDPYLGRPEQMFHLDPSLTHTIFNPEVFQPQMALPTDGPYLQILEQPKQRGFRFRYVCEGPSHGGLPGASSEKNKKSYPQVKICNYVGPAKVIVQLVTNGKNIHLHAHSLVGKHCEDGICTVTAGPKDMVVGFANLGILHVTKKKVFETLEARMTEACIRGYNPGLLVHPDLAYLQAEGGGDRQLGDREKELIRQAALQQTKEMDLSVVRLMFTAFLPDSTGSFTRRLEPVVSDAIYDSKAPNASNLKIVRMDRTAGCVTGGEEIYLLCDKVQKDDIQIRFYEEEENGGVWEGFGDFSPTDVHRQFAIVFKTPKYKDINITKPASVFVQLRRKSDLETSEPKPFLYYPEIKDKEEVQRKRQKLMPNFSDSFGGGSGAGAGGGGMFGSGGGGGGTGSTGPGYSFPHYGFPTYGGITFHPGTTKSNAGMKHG

Target: NF-κB p65 subunit (human (endogenous in HUVECs)) (UniProt Q04206)
Assay: native gel or EMSA; supershift: nuclear extracts of TNF-α-stimulated HUVECs incubated with antibodies against p50 or p65 for 15 mins at 37°C, then EMSA with labelled NF-κB oligonucleotide

binding: binds
Substance: NF-κB p50 subunit (from UniProt P19838 1-433)
